# According to patent publication US4066749A, “Tetrapeptide analog of TRH” (Merck & Co., Inc., priority 1977, dated 1978):
# At least one peptide structure holds a part that was inferred or is arguable (an end, a ring closure or a residue).
# Assay: central nervous system stimulant activity compared with TRH
# Conditions: relative to TRH; no test described
smiles,measurement,value
"NC(=O)CCNC(=O)[C@@H]1CSCN1C(=O)[C@H](Cc1c[nH]cn1)NC(=O)[C@@H]1CCCC(=O)N1 [L-Kpc-L-His-L-Tca-β-ala-NH2, L-2-ketopiperidine-6-carbonyl-L-histidyl-L-thiazolidine-4-carbonyl-β-alaninamide]",activity as a central nervous system stimulant,greater activity as a central nervous system stimulant than does TRH
